Some entries share one result that the patent states for a list of compounds.
System: brain β amyloid 1-40
Test: Lowering effect on brain β amyloid in rats
Type: in vivo
Conditions: male Crg:SD rat, 10 mg/kg orally, brain isolated 3 hours after administration, ELISA
Experimental: A test compound was suspended in 0.5% methylcellulose, the final concentration was adjusted to 2 mg/mL, and this was orally administered to male Crg:SD rat (7 to 9 week old) at 10 mg/kg. In a vehicle control group, only 0.5% methylcellulose was administered, and an administration test was performed at 3 to 8 animals per group. A brain was isolated 3 hours after administration, a cerebral hemisphere was isolated, a weight thereof was measured, the hemisphere was rapidly frozen in liquid nitrogen, and stored at −80° C. until the day for extraction. The frozen cerebral hemisphere was transferred to a homogenizer manufactured by Teflon (registered trade mark) under ice cooling, a 5-fold volume of a weight of an extraction buffer (containing 1% CHAPS ({3-[(3-chloroamidopropyl)dimethylammonio]-1-propanesulfonate}), 20 mM Tris-HCl (pH 8.0), 150 mM NaCl, Complete (Roche) protease inhibitor) was added, up and down movement was repeated, and this was homogenized to solubilize for 2 minutes. The suspension was transferred to a centrifugation tube, allowed to stand on an ice for 3 hours or more and, thereafter centrifuged at 100,000×g and 4° C. for 20 minutes. […] The lowering effect was calculated as a ratio compared to the brain b amyloid 1-40 level of vehicle control group.

For `COc1cc(Cl)cnc1C(=O)Nc1cccc(C2(C)CCSC(N)=N2)c1` (stereo not shown) [Compound 1], the “reduction of brain β amyloid 1-40 compared to vehicle control group” value was “lowers the brain β amyloid 1-40 in rats”.

Reference: patent US8895548B2, “Pharmaceutical composition for treating alzheimer's disease” (Shionogi & Co., Ltd., priority 2007, dated 2014)
